Patent publication US12208001B2, “Methods and systems for preventing or reducing stenosis in a subject receiving a graft” (The General Hospital Corporation, priority 2012, dated 2025)

Tests used:
[1] = system: Saphenous veins; experiment: Vessel compliance measured with a pressure transducer; set-up: species or system Yorkshire pigs; settings: for relative compliance (slope of the compliance curve pertaining to physiologic pressure), Mean: 3 cm vessel sections, 1 ml saline in 0.1 ml increments; for compliance difference among artery, PTP treated vein and EDC treated vein: One-Way ANOVA; for compliance difference among artery, PTP treated vein and EDC treated vein / compliance vs untreated control vein (One-Way ANOVA): p<0.05 considered significant
[2] = system: Porcine jugular veins; experiment: Elasticity of venous tissue: stress-strain curves with a tensiometer; set-up: species or system pigs

Row | SMILES | relative compliance (slope of the compliance curve pertaining to physiologic pressure), Mean [1] | compliance difference among artery, PTP treated vein and EDC treated vein [1] | compliance vs untreated control vein (One-Way ANOVA) [1] | Young's Modulus (modulus of elasticity) ([2]; 0.1% Rose Bengal, 532 nm laser, 25 J/cm^2, N = 17, mean + SD) | increase of modulus of elasticity of venous grafts ([2]; treated vs untreated veins) [fold]
1 | CCN=C=NCCCN(C)C [EDC, 1-ethyl-3-(3-dimethylaminopropyl)-carbodiimide] | 792 | no significant difference | significantly different from untreated control vein |  | 
2 | O=C1OC2(c3cc(I)c(O)c(I)c3Oc3c2cc(I)c(O)c3I)c2c(Cl)c(Cl)c(Cl)c(Cl)c21 [PTP, Rose Bengal] | 863 | no significant difference | significantly different from untreated control vein | 1008+555 KPa | 2
